From patent US12419871B2, “Biomolecules involved in Alzheimer's disease” (ELECTROPHORETICS LIMITED, priority 2015, dated 2025) come the findings set out here.

The data set is described as follows: TMTcalibrator quantification of regulated proteins in AD CSF versus control. Further details: species or system human. Conditions: CSF of AD patient versus control; non-modified peptides of each protein summed for three control and three AD cases.

B1: Q86UN3 (protein, UniProt Q86UN3 1-420, looked up)
chain: MLPGLRRLLQAPASACLLLMLLALPLAAPSCPMLCTCYSSPPTVSCQANNFSSVPLSLPPSTQRLFLQNNLIRTLRPGTFGSNLLTLWLFSNNLSTIYPGTFRHLQALEELDLGDNRHLRSLEPDTFQGLERLQSLHLYRCQLSSLPGNIFRGLVSLQYLYLQENSLLHLQDDLFADLANLSHLFLHGNRLRLLTEHVFRGLGSLDRLLLHGNRLQGVHRAAFRGLSRLTILYLFNNSLASLPGEALADLPSLEFLRLNANPWACDCRARPLWAWFQRARVSSSDVTCATPPERQGRDLRALREADFQACPPAAPTRPGSRARGNSSSNHLYGVAEAGAPPADPSTLYRDLPAEDSRGRQGGDAPTEDDYWGGYGGEDQRGEQMCPGAACQAPPDSRGPALSAGLPSPLLCLLLLVPHHL
modifications: full-length
With B1, the “Log2 AD/Control” value is 1.18.

B2: Q15493 (protein, UniProt Q15493 1-299, looked up)
chain: MSSIKIECVLPENCRCGESPVWEEVSNSLLFVDIPAKKVCRWDSFTKQVQRVTMDAPVSSVALRQSGGYVATIGTKFCALNWKEQSAVVLATVDNDKKNNRFNDGKVDPAGRYFAGTMAEETAPAVLERHQGALYSLFPDHHVKKYFDQVDISNGLDWSLDHKIFYYIDSLSYSVDAFDYDLQTGQISNRRSVYKLEKEEQIPDGMCIDAEGKLWVACYNGGRVIRLDPVTGKRLQTVKLPVDKTTSCCFGGKNYSEMYVTCARDGMDPEGLLRQPEAGGIFKITGLGVKGIAPYSYAG
modifications: full-length
As for B2, the “Log2 AD/Control” value came to 1.91.

B3: Q9Y4G8 (protein, UniProt Q9Y4G8 1-1499, looked up)
chain: MKPLAIPANHGVMGQQEKHSLPADFTKLHLTDSLHPQVTHVSSSHSGCSITSDSGSSSLSDIYQATESEAGDMDLSGLPETAVDSEDDDDEEDIERASDPLMSRDIVRDCLEKDPIDRTDDDIEQLLEFMHQLPAFANMTMSVRRELCAVMVFAVVERAGTIVLNDGEELDSWSVILNGSVEVTYPDGKAEILCMGNSFGVSPTMDKEYMKGVMRTKVDDCQFVCIAQQDYCRILNQVEKNMQKVEEEGEIVMVKEHRELDRTGTRKGHIVIKGTSERLTMHLVEEHSVVDPTFIEDFLLTYRTFLSSPMEVGKKLLEWFNDPSLRDKVTRVVLLWVNNHFNDFEGDPAMTRFLEEFENNLEREKMGGHLRLLNIACAAKAKRRLMTLTKPSREAPLPFILLGGSEKGFGIFVDSVDSGSKATEAGLKRGDQILEVNGQNFENIQLSKAMEILRNNTHLSITVKTNLFVFKELLTRLSEEKRNGAPHLPKIGDIKKASRYSIPDLAVDVEQVIGLEKVNKKSKANTVGGRNKLKKILDKTRISILPQKPYNDIGIGQSQDDSIVGLRQTKHIPTALPVSGTLSSSNPDLLQSHHRILDFSATPDLPDQVLRVFKADQQSRYIMISKDTTAKEVVIQAIREFAVTATPDQYSLCEVSVTPEGVIKQRRLPDQLSKLADRIQLSGRYYLKNNMETETLCSDEDAQELLRESQISLLQLSTVEVATQLSMRNFELFRNIEPTEYIDDLFKLRSKTSCANLKRFEEVINQETFWVASEILRETNQLKRMKIIKHFIKIALHCRECKNFNSMFAIISGLNLAPVARLRTTWEKLPNKYEKLFQDLQDLFDPSRNMAKYRNVLNSQNLQPPIIPLFPVIKKDLTFLHEGNDSKVDGLVNFEKLRMIAKEIRHVGRMASVNMDPALMFRTRKKKWRSLGSLSQGSTNATVLDVAQTGGHKKRVRRSSFLNAKKLYEDAQMARKVKQYLSNLELEMDEESLQTLSLQCEPATNTLPKNPGDKKPVKSETSPVAPRAGSQQKAQSLPQPQQQPPPAHKINQGLQVPAVSLYPSRKKVPVKDLPPFGINSPQALKKILSLSEEGSLERHKKQAEDTISNASSQLSSPPTSPQSSPRKGYTLAPSGTVDNFSDSGHSEISSRSSIVSNSSFDSVPVSLHDERRQRHSVSIVETNLGMGRMERRTMIEPDQYSLGSYAPMSEGRGLYATATVISSPSTEELSQDQGDRASLDAADSGRGSWTSCSSGSHDNIQTIQHQRSWETLPFGHTHFDYSGDPAGLWASSSHMDQIMFSDHSTKYNRQNQSRESLEQAQSRASWASSTGYWGEDSEGDTGTIKRRGGKDVSIEAESSSLTSVTTEETKPVPMPAHIAVASSTTKGLIARKEGRYREPPPTPPGYIGIPITDFPEGHSHPARKPPDYNVALQRSRMVARSSDTAGPSSVQQPHGHPTSSRPVNKPQWHKPNESDPRLAPYQSQGFSTEEDEDEQVSAV
modifications: full-length
Take B3: the “Log2 AD/Control” value is listed as 0.72.

B4: Q92900 (protein, UniProt Q92900 1-1129, looked up)
chain: MSVEAYGPSSQTLTFLDTEEAELLGADTQGSEFEFTDFTLPSQTQTPPGGPGGPGGGGAGGPGGAGAGAAAGQLDAQVGPEGILQNGAVDDSVAKTSQLLAELNFEEDEEDTYYTKDLPIHACSYCGIHDPACVVYCNTSKKWFCNGRGNTSGSHIVNHLVRAKCKEVTLHKDGPLGETVLECYNCGCRNVFLLGFIPAKADSVVVLLCRQPCASQSSLKDINWDSSQWQPLIQDRCFLSWLVKIPSEQEQLRARQITAQQINKLEELWKENPSATLEDLEKPGVDEEPQHVLLRYEDAYQYQNIFGPLVKLEADYDKKLKESQTQDNITVRWDLGLNKKRIAYFTLPKTDSGNEDLVIIWLRDMRLMQGDEICLRYKGDLAPLWKGIGHVIKVPDNYGDEIAIELRSSVGAPVEVTHNFQVDFVWKSTSFDRMQSALKTFAVDETSVSGYIYHKLLGHEVEDVIIKCQLPKRFTAQGLPDLNHSQVYAVKTVLQRPLSLIQGPPGTGKTVTSATIVYHLARQGNGPVLVCAPSNIAVDQLTEKIHQTGLKVVRLCAKSREAIDSPVSFLALHNQIRNMDSMPELQKLQQLKDETGELSSADEKRYRALKRTAERELLMNADVICCTCVGAGDPRLAKMQFRSILIDESTQATEPECMVPVVLGAKQLILVGDHCQLGPVVMCKKAAKAGLSQSLFERLVVLGIRPIRLQVQYRMHPALSAFPSNIFYEGSLQNGVTAADRVKKGFDFQWPQPDKPMFFYVTQGQEEIASSGTSYLNRTEAANVEKITTKLLKAGAKPDQIGIITPYEGQRSYLVQYMQFSGSLHTKLYQEVEIASVDAFQGREKDFIILSCVRANEHQGIGFLNDPRRLNVALTRARYGVIIVGNPKALSKQPLWNHLLNYYKEQKVLVEGPLNNLRESLMQFSKPRKLVNTINPGARFMTTAMYDAREAIIPGSVYDRSSQGRPSSMYFQTHDQIGMISAGPSHVAAMNIPIPFNLVMPPMPPPGYFGQANGPAAGRGTPKGKTGRGGRQKNRFGLPGPSQTNLPNSQASQDVASQPFSQGALTQGYISMSQPSQMSQPGLSQPELSQDSYLGDEFKSQIDVALSQDSTYQGERAYQHGGVTGLSQY
modifications: full-length
As for B4, the “Log2 AD/Control” value is 0.80.

B5: Q9UL25 (protein, UniProt Q9UL25 1-225, looked up)
chain: MAAAGGGGGGAAAAGRAYSFKVVLLGEGCVGKTSLVLRYCENKFNDKHITTLQASFLTKKLNIGGKRVNLAIWDTAGQERFHALGPIYYRDSNGAILVYDITDEDSFQKVKNWVKELRKMLGNEICLCIVGNKIDLEKERHVSIQEAESYAESVGAKHYHTSAKQNKGIEELFLDLCKRMIETAQVDERAKGNGSSQPGTARRGVQIIDDEPQAQTSGGGCCSSG
modifications: full-length
As to B5, the “Log2 AD/Control” value worked out at 0.69.

B6: Q8TC12 (protein, UniProt Q8TC12 1-318, looked up)
chain: MVELMFPLLLLLLPFLLYMAAPQIRKMLSSGVCTSTVQLPGKVVVVTGANTGIGKETAKELAQRGARVYLACRDVEKGELVAKEIQTTTGNQQVLVRKLDLSDTKSIRAFAKGFLAEEKHLHVLINNAGVMMCPYSKTADGFEMHIGVNHLGHFLLTHLLLEKLKESAPSRIVNVSSLAHHLGRIHFHNLQGEKFYNAGLAYCHSKLANILFTQELARRLKGSGVTTYSVHPGTVQSELVRHSSFMRWMWWLFSFFIKTPQQGAQTSLHCALTEGLEILSGNHFSDCHVAWVSAQARNETIARRLWDVSCDLLGLPID
modifications: full-length
B6: the “Log2 AD/Control” value is listed as −0.73.

B7: Q15293 (protein, UniProt Q15293 1-331, looked up)
chain: MARGGRGRRLGLALGLLLALVLAPRVLRAKPTVRKERVVRPDSELGERPPEDNQSFQYDHEAFLGKEDSKTFDQLTPDESKERLGKIVDRIDNDGDGFVTTEELKTWIKRVQKRYIFDNVAKVWKDYDRDKDDKISWEEYKQATYGYYLGNPAEFHDSSDHHTFKKMLPRDERRFKAADLNGDLTATREEFTAFLHPEEFEHMKEIVVLETLEDIDKNGDGFVDQDEYIADMFSHEENGPEPDWVLSEREQFNEFRDLNKDGKLDKDEIRHWILPQDYDHAQAEARHLVYESDKNKDEKLTKEEILENWNMFVGSQATNYGEDLTKNHDEL
modifications: full-length
Regarding B7, the “Log2 AD/Control” value worked out at 1.35.

B8: Q8WUD1 (protein, UniProt Q8WUD1 1-216, looked up)
chain: MTYAYLFKYIIIGDTGVGKSCLLLQFTDKRFQPVHDLTIGVEFGARMVNIDGKQIKLQIWDTAGQESFRSITRSYYRGAAGALLVYDITRRETFNHLTSWLEDARQHSSSNMVIMLIGNKSDLESRRDVKREEGEAFAREHGLIFMETSAKTACNVEEAFINTAKEIYRKIQQGLFDVHNEANGIKIGPQQSISTSVGPSASQRNSRDIGSNSGCC
modifications: full-length
For the molecule B8, the “Log2 AD/Control” value amounted to 0.80.

B9: Q9NP90 (protein, UniProt Q9NP90 1-201, looked up)
chain: MSGKSLLLKVILLGDGGVGKSSLMNRYVTNKFDSQAFHTIGVEFLNRDLEVDGRFVTLQIWDTAGQERFKSLRTPFYRGADCCLLTFSVDDRQSFENLGNWQKEFIYYADVKDPEHFPFVVLGNKVDKEDRQVTTEEAQTWCMENGDYPYLETSAKDDTNVTVAFEEAVRQVLAVEEQLEHCMLGHTIDLNSGSKAGSSCC
modifications: full-length
On to B9, for which the “Log2 AD/Control” value was determined as 1.47.
